Measurements reported in PubChem BioAssay AID1259254 (NCATS, 2017)
Screen: 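Gene knock-downs that lead to re-replication, shown by excess G2 DNA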 (primary screen). Cell system: human HCT116 colorectal cancer cells. Reagent: single siRNA against human genes. Timing: 3 days. Measurement: 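Imaged Hoechst DNA stain sorts each cell into a cycle phase by DNA amount; per plate, G2 fraction set to 0% for non-targeting and 100% for GMNN siRNA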. Scale: G2 robust z-score and G2 cells, % of GMNN control: higher = more G2 cells, more excess DNA replication; raw share of cells in G2: higher = larger share of cells with G2 DNA content. Rule for the call: 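Active siRNAs have a G2 robust z of 5 or more median absolute deviations over the median, which in these data means about 38% or higher of GMNN control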.
Here is one part, drawn at random, of about 59,000 reagents tested. Over the whole deposit, about 1,550 (2.6%) were called active. 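G2 share is only a proxy for re-replication; each gene was hit by three separate siRNAs, and active genes were retested.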 The raw values are shown without normalisation. Reagents against one gene are numbered here. The record does not give: the amount of reagent.

| G2 robust z-score | G2 cells, % of GMNN control | raw share of cells in G2 (%) | call | gene | siRNA no. |
| --- | --- | --- | --- | --- | --- |
| -1.02 | -4.17 | 1.66 | inactive | ZNF707 | 1 |
| -0.727 | -2.15 | 2.42 | inactive | ZNF707 | 2 |
| -0.185 | 1.67 | 4.11 | inactive | ZNF707 | 3 |
| 0.753 | 8.27 | 6.28 | inactive | SNAP23 | 1 |
| -0.542 | -0.845 | 5.61 | inactive | SNAP23 | 2 |
| 1.49 | 13.5 | 8.98 | inactive | SNAP23 | 3 |
| -0.688 | -1.87 | 5.17 | inactive | GPR108 | 1 |
| -0.353 | 0.483 | 4.69 | inactive | GPR108 | 2 |
| 1.77 | 15.4 | 7.99 | inactive | GPR108 | 3 |
| 0.429 | 5.98 | 7 | inactive | HSDL1 | 1 |
| -0.932 | -3.59 | 3.94 | inactive | HSDL1 | 2 |
| 4.39 | 33.9 | 16.5 | inactive | HSDL1 | 3 |
| -0.53 | -0.759 | 3.51 | inactive | PRKAG3 | 1 |
| 0.851 | 8.96 | 10 | inactive | PRKAG3 | 2 |
| -0.474 | -0.371 | 4.11 | inactive | PRKAG3 | 3 |
| -0.12 | 2.13 | 7.22 | inactive | CHST5 | 1 |
| -0.535 | -0.799 | 3.89 | inactive | CHST5 | 2 |
| 1.5 | 13.5 | 8.49 | inactive | CHST5 | 3 |
| 0.485 | 6.38 | 8.12 | inactive | AGTR2 | 1 |
| -0.155 | 1.88 | 5.17 | inactive | AGTR2 | 2 |
| -0.0343 | 2.73 | 4.1 | inactive | AGTR2 | 3 |
| -0.278 | 1.01 | 4.17 | inactive | RAB35 | 1 |
| 1.28 | 12 | 11.2 | inactive | RAB35 | 2 |
| 0.0104 | 3.04 | 7.02 | inactive | RAB35 | 3 |
| -0.421 | 0.00391 | 3.53 | inactive | LZTR1 | 1 |
| -0.73 | -2.17 | 5.02 | inactive | LZTR1 | 2 |
| 0.554 | 6.86 | 6.21 | inactive | LZTR1 | 3 |
| 0.803 | 8.62 | 8.27 | inactive | PIM3 | 1 |
| -0.902 | -3.38 | 3.96 | inactive | PIM3 | 2 |
| 0.146 | 4 | 4.96 | inactive | PIM3 | 3 |
| 0.37 | 5.57 | 6.66 | inactive | KIF21A | 1 |
| -1.13 | -4.95 | 2.67 | inactive | KIF21A | 2 |
| -0.326 | 0.676 | 6.73 | inactive | KIF21A | 3 |
| 2.27 | 18.9 | 11 | inactive | APP | 1 |
| 0.204 | 4.4 | 6.64 | inactive | APP | 2 |
| 1.82 | 15.8 | 10.1 | inactive | APP | 3 |
| -0.823 | -2.82 | 3.98 | inactive | C8A | 1 |
| -0.262 | 1.13 | 4.5 | inactive | C8A | 2 |
| -0.61 | -1.33 | 3 | inactive | C8A | 3 |
| 0.733 | 8.12 | 9.23 | inactive | UBE4B | 1 |
| 0.724 | 8.06 | 6.45 | inactive | UBE4B | 2 |
| 0.678 | 7.74 | 9.53 | inactive | UBE4B | 3 |
| -0.363 | 0.414 | 4.09 | inactive | GTF2IRD1P1 | 1 |
| -1.3 | -6.19 | 1.32 | inactive | GTF2IRD1P1 | 2 |
| -0.363 | 0.411 | 3.27 | inactive | GTF2IRD1P1 | 3 |
| 3.61 | 28.3 | 15.3 | inactive | CPEB4 | 1 |
| 3.29 | 26.1 | 13.6 | inactive | CPEB4 | 2 |
| 1.37 | 12.6 | 10.7 | inactive | CPEB4 | 3 |
| -0.106 | 2.22 | 6.33 | inactive | USP47 | 1 |
| 0.588 | 7.1 | 7.42 | inactive | USP47 | 2 |
| -0.849 | -3.01 | 2.79 | inactive | USP47 | 3 |
| 3.4 | 26.9 | 15.5 | inactive | TMEM132C | 1 |
| 0.119 | 3.81 | 4.19 | inactive | TMEM132C | 2 |
| -0.214 | 1.46 | 3.39 | inactive | TMEM132C | 3 |
| 3.2 | 25.5 | 12.7 | inactive | ACIN1 | 1 |
| 0.169 | 4.15 | 8.04 | inactive | ACIN1 | 2 |
| 1.07 | 10.5 | 7.47 | inactive | ACIN1 | 3 |
| -0.871 | -3.16 | 3.9 | inactive | SEMA3E | 1 |
| -0.472 | -0.355 | 3.8 | inactive | SEMA3E | 2 |
| -0.25 | 1.21 | 3.85 | inactive | SEMA3E | 3 |
| -0.382 | 0.282 | 5.78 | inactive | SOX5 | 1 |
| -0.506 | -0.594 | 3.76 | inactive | SOX5 | 2 |
| -0.0447 | 2.65 | 5.46 | inactive | SOX5 | 3 |
| -0.74 | -2.24 | 3.07 | inactive | DNAJA1P4 | 1 |
| 0.449 | 6.13 | 5.29 | inactive | DNAJA1P4 | 2 |
| -0.119 | 2.13 | 3.94 | inactive | DNAJA1P4 | 3 |
| 0.669 | 7.68 | 7.37 | inactive | EPB41L5 | 1 |
| 1.05 | 10.3 | 9.4 | inactive | EPB41L5 | 2 |
| -0.568 | -1.03 | 2.7 | inactive | EPB41L5 | 3 |
| 0.259 | 4.79 | 6.21 | inactive | CNRIP1 | 1 |
| -0.567 | -1.02 | 3.5 | inactive | CNRIP1 | 2 |
| 0.00579 | 3.01 | 4.35 | inactive | CNRIP1 | 3 |
| -1.13 | -4.99 | 3.58 | inactive | SPRED2 | 1 |
| 0.326 | 5.26 | 6.63 | inactive | SPRED2 | 2 |
| -0.879 | -3.22 | 3.35 | inactive | SPRED2 | 3 |
| 0.0768 | 3.51 | 6.69 | inactive | H3C1 | 1 |
| 0.87 | 9.09 | 7.5 | inactive | H3C1 | 2 |
| 0.908 | 9.35 | 6.65 | inactive | H3C1 | 3 |
| -0.527 | -0.738 | 2.93 | inactive | LOC644058 (retired record) | 1 |
| 0.358 | 5.49 | 5.73 | inactive | LOC644058 (retired record) | 2 |
| 1.25 | 11.8 | 7.51 | inactive | LOC644058 (retired record) | 3 |
| 0.598 | 7.18 | 9.58 | inactive | LHX9 | 1 |
| -1.26 | -5.87 | 2.34 | inactive | LHX9 | 2 |
| 0.427 | 5.97 | 6.82 | inactive | LHX9 | 3 |
| -1.51 | -7.64 | 1.4 | inactive | GUCA1A | 1 |
| -0.932 | -3.59 | 4.32 | inactive | GUCA1A | 2 |
| -0.0293 | 2.76 | 6.05 | inactive | GUCA1A | 3 |
